Data published in publication PMC7570921 (Molecules, 2020).
Some peptides are written in HELM: one residue between dots, names in brackets for other building blocks, links after the first $.

Test: general procedure: peptide synthesis; HATU
Conditions: conjugation step

| Substance | conjugation yield [%] |
| --- | --- |
| PEPTIDE1{[DBCO].G.A.G.R.R.A.A.G.[DOX]}$$$$V2.0 | 60.5 |
| DBCO-GAGRRAAG | 55.8 |
